Results on 84 sequences are retold here after paper PMC7862700.

Holding throughout (assay): DAPPL (digital affinity profiling via proximity ligation, sequencing)
Holding throughout (conditions): 10 mM Tris-HCl pH 7.5, 50 mM NaCl, 1 mM DTT, 4% glycerol, room temperature, 30 min; GST-TFs on glutathione beads, 16-mer random dsDNA library, 0.1% …; high values mean tight binding; double strand, one strand shown; scale: fold enrichment (6-mer frequency, TF over GST control)

One assay addresses T1, GABPA (UniProt Q06546).
T1 sequence: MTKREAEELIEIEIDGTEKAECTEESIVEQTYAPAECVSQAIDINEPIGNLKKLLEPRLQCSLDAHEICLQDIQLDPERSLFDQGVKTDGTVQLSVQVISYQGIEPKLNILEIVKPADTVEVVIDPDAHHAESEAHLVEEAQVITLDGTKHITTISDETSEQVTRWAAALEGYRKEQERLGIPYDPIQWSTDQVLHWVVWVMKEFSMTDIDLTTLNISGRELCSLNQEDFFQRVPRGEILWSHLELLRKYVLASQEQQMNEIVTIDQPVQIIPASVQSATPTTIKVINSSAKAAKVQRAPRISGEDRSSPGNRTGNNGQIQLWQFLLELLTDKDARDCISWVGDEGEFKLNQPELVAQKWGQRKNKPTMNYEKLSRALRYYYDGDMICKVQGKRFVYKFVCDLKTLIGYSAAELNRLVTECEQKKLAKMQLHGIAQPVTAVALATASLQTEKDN

The target in a further assay is T2, ETS1 (UniProt P14921).
T2 sequence: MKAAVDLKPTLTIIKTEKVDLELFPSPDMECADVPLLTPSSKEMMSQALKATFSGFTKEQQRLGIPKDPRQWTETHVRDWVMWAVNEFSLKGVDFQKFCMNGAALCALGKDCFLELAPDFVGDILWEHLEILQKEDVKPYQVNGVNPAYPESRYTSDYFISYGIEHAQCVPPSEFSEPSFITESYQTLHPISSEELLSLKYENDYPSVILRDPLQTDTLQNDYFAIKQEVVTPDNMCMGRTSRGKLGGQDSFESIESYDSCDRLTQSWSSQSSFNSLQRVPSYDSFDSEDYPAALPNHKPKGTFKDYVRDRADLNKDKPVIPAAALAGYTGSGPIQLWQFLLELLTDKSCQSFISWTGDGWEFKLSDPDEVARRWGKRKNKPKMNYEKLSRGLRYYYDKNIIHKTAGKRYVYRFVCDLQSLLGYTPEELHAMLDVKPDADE

In the next assay the target is T3, SPDEF (UniProt O95238).
T3 sequence: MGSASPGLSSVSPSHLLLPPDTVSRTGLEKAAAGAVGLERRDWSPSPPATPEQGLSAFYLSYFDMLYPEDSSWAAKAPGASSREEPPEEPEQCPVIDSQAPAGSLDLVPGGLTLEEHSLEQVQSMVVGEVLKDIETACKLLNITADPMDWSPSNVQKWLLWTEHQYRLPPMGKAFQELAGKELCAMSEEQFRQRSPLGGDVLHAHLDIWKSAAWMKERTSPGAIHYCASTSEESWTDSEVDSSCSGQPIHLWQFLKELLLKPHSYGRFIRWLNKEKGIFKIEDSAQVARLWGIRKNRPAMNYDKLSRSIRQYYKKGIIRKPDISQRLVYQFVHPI

This is a selection; strong and weak results do not stand in their true shares. For part of these data: At the low end of the ranking, values are background and their order means little. The list shows a part of the results. For part of these data: The source does not settle which construct or isoform was used.

In the case of CGTAAG, the binding signal is 0.729 in the assay with GABPA, 0.752 in the assay with ETS1 and 0.684 with SPDEF.
In the case of GGGCGT, the binding signal in the assay with GABPA worked out at 0.403; with ETS1, 0.498; with SPDEF, 0.491.
Taken in the same sequence, the figures for TCGGGG were 0.409, 0.42 and 0.402.
Taken in the same sequence, the figures for CAGGCA were 0.792, 0.757 and 0.736.
As to GAGCGT, the binding signal with GABPA worked out at 0.343; with ETS1 it was 0.352; with SPDEF, 0.345.
In the case of GGATTG, the binding signal turned out to be 0.78 in the assay with GABPA, 0.849 in the assay with ETS1 and 0.86 in the assay with SPDEF.
Taken in the same sequence, the figures for AGCGAG were 0.655, 0.628 and 0.656.
With CACAGA, the binding signal with GABPA was found to be 0.845; in the assay with ETS1 it was 0.857; in the assay with SPDEF, 0.898.
Taken in the same sequence, the figures for GCGGGC were 0.723, 0.628 and 0.652.
GGAATC: the binding signal turned out to be 0.736 in the assay with GABPA, 0.726 in the assay with ETS1 and 0.748 with SPDEF.
Taken in the same sequence, the figures for AGGCGC were 0.591, 0.575 and 0.492.
The like results for GTCGGG were, in that order, 0.23, 0.227 and 0.226.
For GTAGAC, the binding signal with GABPA turned out to be 0.762; in the assay with ETS1 it was 0.741; with SPDEF, 0.791.
The like results for GAGGCT were, in that order, 0.629, 0.645 and 0.561.
The like results for GGCGGG were, in that order, 0.329, 0.289 and 0.332.
As for CGTGGG, the binding signal in the assay with GABPA is 0.404; in the assay with ETS1, 0.371; in the assay with SPDEF, 0.317.
Taken in the same sequence, the figures for CGGAGG were 0.282, 0.29 and 0.269.
Taken in the same sequence, the figures for TTGTGA were 0.86, 0.812 and 0.808.
As for CCACGG, the binding signal with GABPA worked out at 0.901; with ETS1 it was 0.893; with SPDEF, 0.915.
The like results for CGGAGC were, in that order, 0.396, 0.381 and 0.415.
Taken in the same sequence, the figures for AGGCGA were 0.508, 0.528 and 0.46.
The like results for AGTCTA were, in that order, 0.772, 0.723 and 0.692.
With ATCGTA, the figures for the binding signal with GABPA, with ETS1 and with SPDEF were 0.843, 0.808 and 0.874, respectively.
The like results for CCAAGG were, in that order, 0.907, 0.935 and 0.889.
As for GCTCGG, the binding signal with GABPA was 0.756; in the assay with ETS1, 0.715; in the assay with SPDEF it was 0.768.
As to GTGGGT, the figures for the binding signal with GABPA, with ETS1 and in the assay with SPDEF were 0.455, 0.503 and 0.461, respectively.
The like results for GCGAGA were, in that order, 0.547, 0.531 and 0.475.
The like results for GCACAG were, in that order, 0.711, 0.745 and 0.756.
As for TAGGGA, the binding signal with GABPA turned out to be 0.803; with ETS1, 0.885; with SPDEF, 0.808.
For AAGGTG, the binding signal with GABPA stood at 0.894; with ETS1 it was 0.896; with SPDEF it was 0.866.
Taken in the same sequence, the figures for TGGAGA were 0.436, 0.414 and 0.392.
The like results for AGAAAG were, in that order, 0.88, 0.847 and 0.86.
The like results for TGTGAG were, in that order, 0.363, 0.314 and 0.322.
On to CAAGGA, for which the binding signal with GABPA came out at 0.712; in the assay with ETS1, 0.713; with SPDEF, 0.781.
The like results for TAGGAG were, in that order, 0.417, 0.39 and 0.396.
Taken in the same sequence, the figures for GATGAG were 0.812, 0.88 and 0.795.
Taken in the same sequence, the figures for CGGAGT were 0.311, 0.313 and 0.327.
For the sequence TAAGTG, the binding signal in the assay with GABPA stood at 0.783; with ETS1, 0.801; in the assay with SPDEF, 0.794.
The like results for AGTCGG were, in that order, 0.146, 0.138 and 0.147.
The like results for GCTTGA were, in that order, 0.947, 0.896 and 0.824.
As for GCGTGC, the binding signal with GABPA amounted to 0.827; with ETS1, 0.882; in the assay with SPDEF, 0.733.
Taken in the same sequence, the figures for AGGGGA were 0.632, 0.605 and 0.524.
Taken in the same sequence, the figures for GTGCGA were 0.746, 0.916 and 0.787.
The like results for CCGGGC were, in that order, 0.915, 0.762 and 1.05.
Consider AGTCGA, for which the binding signal with GABPA is 0.432; in the assay with ETS1, 0.336; with SPDEF, 0.396.
As to TGGGCC, the binding signal with GABPA came to 0.915; with ETS1, 0.991; with SPDEF it was 0.89.
The like results for CCAGAG were, in that order, 0.671, 0.69 and 0.616.
Taken in the same sequence, the figures for CAGAGG were 0.637, 0.587 and 0.594.
The like results for ACCATG were, in that order, 0.858, 0.907 and 0.876.
Regarding AGCAGG, the values for the binding signal with GABPA, with ETS1 and with SPDEF were 0.841, 0.88 and 0.852, respectively.
Taken in the same sequence, the figures for GGTGGG were 0.624, 0.592 and 0.675.
The like results for AGGCCA were, in that order, 0.726, 0.639 and 0.629.
Taken in the same sequence, the figures for TCAGGA were 0.832, 0.846 and 0.89.
For GCGGTA, the figures for the binding signal with GABPA, with ETS1 and with SPDEF were 0.726, 0.753 and 0.718, respectively.
Taken in the same sequence, the figures for TGAGAT were 0.754, 0.675 and 0.686.
Consider GGGTAA, for which the binding signal in the assay with GABPA amounted to 0.926; with ETS1, 0.954; with SPDEF, 0.831.
Taken in the same sequence, the figures for CATGTG were 0.879, 0.844 and 0.797.
Taken in the same sequence, the figures for TGTGAA were 0.918, 0.895 and 0.9.
The like results for GATTGT were, in that order, 0.826, 0.866 and 0.835.
As for AGCCGA, the figures for the binding signal with GABPA, in the assay with ETS1 and with SPDEF were 0.94, 0.866 and 0.752, respectively.
Taken in the same sequence, the figures for GTACGT were 0.856, 0.947 and 0.869.
Turning to GGTACC, the binding signal with GABPA stood at 0.798; in the assay with ETS1, 0.896; with SPDEF it was 0.883.
The like results for TCGGAG were, in that order, 0.204, 0.192 and 0.181.
The like results for AAGACC were, in that order, 0.866, 0.815 and 0.851.
The like results for GGCCAA were, in that order, 0.9, 0.855 and 0.788.
As to GAGGCG, the binding signal in the assay with GABPA is 0.435; in the assay with ETS1, 0.442; with SPDEF, 0.382.
Taken in the same sequence, the figures for AGGCAG were 0.615, 0.553 and 0.521.
TGTGGG: the binding signal with GABPA was determined as 0.836; with ETS1 it was 0.816; in the assay with SPDEF, 0.737.
The like results for GAGACA were, in that order, 0.37, 0.362 and 0.338.
Taken in the same sequence, the figures for ACCGAG were 0.77, 0.777 and 0.758.
The like results for AGGGCA were, in that order, 0.839, 0.86 and 0.83.
On to CCGTGT, for which the binding signal stood at 0.511 with GABPA, 0.499 in the assay with ETS1 and 0.619 with SPDEF.
The like results for GCCGCG were, in that order, 0.749, 0.783 and 0.727.
On to ACGTGT, for which the binding signal with GABPA is 0.607; in the assay with ETS1, 0.642; with SPDEF, 0.644.
Taken in the same sequence, the figures for GGCCGA were 0.733, 0.761 and 0.661.
Taken in the same sequence, the figures for GTAGAG were 0.594, 0.574 and 0.625.
The like results for GAGGAT were, in that order, 0.582, 0.618 and 0.664.
For the sequence AGGGTC, the figures for the binding signal in the assay with GABPA, in the assay with ETS1 and in the assay with SPDEF were 0.857, 0.897 and 0.876, respectively.
The like results for AGTCAC were, in that order, 0.725, 0.756 and 0.721.
The like results for AGCGCA were, in that order, 0.954, 0.909 and 0.866.
As to GTAGCC, the values for the binding signal with GABPA, in the assay with ETS1 and in the assay with SPDEF were 0.909, 0.966 and 0.962, respectively.
The like results for TGTCGT were, in that order, 0.764, 0.893 and 0.967.
The like results for CGGCGC were, in that order, 0.69, 0.602 and 0.627.
The like results for TTCGTG were, in that order, 0.894, 0.961 and 0.91.
